Measured values: PubChem BioAssay AID587 (National Center for Advancing Translational Sciences (NCATS), 2007)
In all, about 59,000 compounds went through this assay and about 35 (0.06%) were called active. Inconclusive means that the source gave no clear call. Such entries were picked first, then a sample of the others. Rule as the data show it: active = max dye-equivalent concentration above about 10 nM; inconclusive = between about 1.1 nM and that limit; inactive = weaker than that.

Assay: qHTS Assay for Spectroscopic Profiling in Texas Red Spectral Region
Conditions: Compound fluorescence, Texas Red channel, 547/618 nm; hits give high values
Summary of the method: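 Compound fluorescence was read after 15 min at room temperature in 100 mM Tris, pH 8.0, using 547 nm excitation and 618 nm emission across a concentration series. It was expressed as Texas Red dye-equivalent concentration from an on-plate standard curve.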

Row | Structure (SMILES) | max dye-equivalent concentration
1 | O=C(NC1CCN(Cc2nnnn2CCc2ccccc2)CC1)c1ccccc1F | inconclusive: 1.7 nM
2 | N=c1n(CCO)c2ccccc2n1Cc1ccc(Cl)cc1 | inconclusive: 2.1 nM
3 | O=C(CN(Cc1ccco1)C(=O)CNS(=O)(=O)c1ccccc1)NC1CCCCC1 | inconclusive: 1.7 nM
4 | COc1ccc(NC(=O)C2CC(=O)N(c3cccc(C)c3C)C2)cc1 (centres undefined) | inconclusive: 1.6 nM
5 | CC(C)CCOP(=O)(c1ccc(N(C)C)cc1)C(O)c1ccccn1 (centres undefined) | inconclusive: 1.2 nM
6 | O=C(CCCc1nc(-c2ccccc2)no1)Nc1cccnc1 | inconclusive: 1.1 nM
7 | c1cn2cc(CN3CCOCC3)nc2s1 | inconclusive: 1.4 nM
8 | CCCCn1c(SCC(=O)N2CCCc3ccccc32)nc2c1c(=O)n(C)c(=O)n2C | inconclusive: 1.3 nM
9 | COc1ccc(CNc2ncnc3ccc(-c4ccc(N(C)C)cc4)cc23)c(OC)c1 | inactive
10 | OCCN(Cc1ccccc1)CC1CC2C=CC1C2 (centres undefined) | inconclusive: 1.1 nM
11 | COc1ccc(OC)c(CNC(=O)CCN2C(=O)COc3ccccc32)c1 | inconclusive: 1.2 nM
12 | COC(=O)c1ccc(NC(=O)C(C)N2C(=O)c3ccccc3C2=O)cc1 (centres undefined) | inconclusive: 1.1 nM
13 | Cc1nn(-c2ccccc2)c2sc(C(=O)N(CC(=O)NC(C)(C)C)Cc3ccco3)cc12 | inconclusive: 1.3 nM
14 | CCOC(=O)c1cccc(NC(=O)CSc2nnc(CNc3ccc(C)cc3)n2CC)c1 | inconclusive: 1.2 nM
15 | COc1ccccc1-c1nc(NCCc2cnc[nH]2)c2ccccc2n1 | inconclusive: 1.4 nM
16 | COc1cccc(Cn2c(=O)c(CCc3ccccc3)nc3cnc(N(C)C)nc32)c1 | inactive
17 | O=c1cc(-c2ccc(O)cc2)oc2cc(O)cc(O)c12 | inconclusive: 1.2 nM
18 | CCN(CC)c1ccc2cc(C(=O)Nc3ccccn3)c(=O)oc2c1 | inactive
19 | Cc1cn([C@H]2C=C[C@H](CO)O2)c(=O)[nH]c1=O | inconclusive: 1.4 nM
20 | Cc1oc(-c2ccccc2F)nc1CN1CCC(C(=O)NCc2cccnc2)CC1 | inconclusive: 1.4 nM
21 | C=CCNc1nc(N)c(C(=O)c2ccc3c(c2)OCO3)s1 | inconclusive: 1.5 nM
22 | Nc1ccc(C23CC4CC(CC(O)(C4)C2)C3)cc1 | inconclusive: 1.3 nM
23 | COc1ccc(CCNC(=O)C2CCN(S(=O)(=O)c3cccc4nonc34)CC2)cc1OC | inconclusive: 2.3 nM
24 | CCC(c1nnnn1Cc1ccccc1)N(Cc1cc2cc(OC)ccc2[nH]c1=O)CC1CCCO1 (centres undefined) | inconclusive: 1.7 nM
25 | Oc1ccc(-c2csc(Nc3cccnc3)n2)cc1 | inconclusive: 2.6 nM
26 | COc1ccc(OCC(=O)Nc2ccc3c(c2)nc(CCN2CCOCC2)n3C)cc1 | inconclusive: 1.1 nM
27 | Cc1cc(OCc2nn[nH]n2)c2c(C)c(CC(=O)O)c(=O)oc2c1 | inconclusive: 1.3 nM

Row | Structure (SMILES) | max dye-equivalent concentration
28 | COC(=O)N1CCC2(CC1)CCN(c1cccc(-c3ccccc3)c1)CC2 | inconclusive: 1.2 nM
29 | Nc1ncnc2nc[nH]c12.Nc1ncnc2nc[nH]c12.[Cl][Pt]([Cl])([Cl])[Cl] | inactive
30 | CC(=O)NCCN=C(C)c1sc2ccccc2c1O | inconclusive: 1.6 nM
31 | Cn1c(NCc2ccco2)nc2c1c(=O)n(Cc1ccc(Cl)cc1Cl)c(=O)n2C | inconclusive: 1.1 nM
32 | O=C(O)Cc1ccc2[nH]c3ccc(CC(=O)O)cc3c2c1 | inconclusive: 1.7 nM
33 | CC(C)CN1C(=O)NC(NC(=O)c2cccnc2)(C(F)(F)F)C1=O (centres undefined) | inconclusive: 1.1 nM
34 | CCCc1n[nH]c(=O)[nH]1 | inconclusive: 1.3 nM
35 | CCn1c(=O)cc(OCC(=O)Nc2cc(C)ccn2)c2ccccc21 | inconclusive: 1.1 nM
36 | Cc1cccc(C)c1OCCCCc1c(C)n[nH]c1C | inconclusive: 1.1 nM
37 | CN1C[C@@H](C(=O)N[C@]2(C)O[C@]3(O)[C@H]4CCCN4C(=O)[C@H](Cc4ccccc4)N3C2=O)C[C@H]2c3cccc4[nH]cc(c34)C[C@@H]21 | inactive
38 | Cc1cc(C)nc(SCNC(=O)c2ccc(F)cc2)n1 | inconclusive: 1.8 nM
39 | COc1ncc2nc(C)c(=O)n(CCC#N)c2n1 | inactive
40 | CCOC(=O)CCc1c(C)c(C#N)c2[nH]c3ccccc3n2c1=O | inactive
41 | Cc1cc2cc(CN(Cc3ccco3)C(=O)C3CCCCC3)c(=O)[nH]c2cc1C | inconclusive: 1.1 nM
42 | CC(C)(C)OC(=O)N1CCC(c2c(C(=O)O)cnn2-c2ccccc2Cl)CC1 | inconclusive: 1.3 nM
43 | COc1cccc(NS(=O)(=O)c2ccc(S(=O)(=O)N3CCOCC3)cc2)c1 | inactive
44 | CCOc1ccccc1-n1c(SCC(=O)NC2CCCC2)nnc1-c1ccoc1C | inactive
45 | Cc1scc2c1N(C(=O)CN1CCN(C)CC1)c1ccccc1NC2=O | inconclusive: 1.3 nM
46 | CCOC(=O)N1CCC(NC(=O)c2ccc(OC)c(CN3CC(=O)N4CCCC4C3=O)c2)CC1 (centres undefined) | inconclusive: 1.1 nM
47 | Cc1c(N=C2SCC(=O)N2c2c(C)n(C)n(-c3ccccc3)c2=O)c(=O)n(-c2ccccc2)n1C | inconclusive: 1.1 nM
48 | CCNc1ncc2nc(-c3ccccc3)c(=O)n(CCOC)c2n1 | inconclusive: 1.2 nM
49 | CCOC(=O)CN(C(=O)CSc1nnc(-c2ccc(OC)c(OC)c2)o1)c1ccccc1 | inconclusive: 1.1 nM
50 | COc1cc2cc3c4cc(OC)c(OC)cc4cc[n+]3c(C)c2cc1OC | inconclusive: 1.1 nM
51 | O=C(COC(=O)c1c2c(nc3ccccc13)CCCC2)Nc1ccc2c(c1)OCO2 | inconclusive: 1.1 nM
52 | O=C(NCc1ccco1)C1CCCN1C(=O)NCc1ccccc1 (centres undefined) | inconclusive: 1.4 nM
53 | CCc1c(C)nc2cc(-c3ccc(OC)c(OC)c3)nn2c1N1CCCC1 | inconclusive: 1.1 nM
54 | CC1Cc2nc(SCC(=O)N3CCc4ccccc43)n(C)c(=O)c2S1 (centres undefined) | inconclusive: 1.7 nM

2 of these compounds, reformatted.
Row,Structure (SMILES),max dye-equivalent concentration
27,Cc1cc(OCc2nn[nH]n2)c2c(C)c(CC(=O)O)c(=O)oc2c1,inconclusive: 1.3 nM
30,CC(=O)NCCN=C(C)c1sc2ccccc2c1O,inconclusive: 1.6 nM
